Results are given in words; binding and its absence hold for the method and conditions named. In cells and extracts the contact can be indirect. For some assays here: Binding calls can cover weak binding; strength is not graded here.
What was measured:
α-catenin = α-catenin (UniProt P35221); assay: co-IP; HEK293T cells co-transfected with 6Myc-Smed-β-catenin and a flag-tagged partner; lysis buffer 50 mM Tris-HCl pH 7.4, 300 mM NaCl, 1 mM EDTA, 1% NP-40; lysate with FLAG-M2 beads at 4°C for 6 h; immunoblot with anti-Myc or anti-Flag
β-Trcp = β-Trcp (UniProt Q9Y297); assay: as above

The chains behind the UniProt entries cited, without tags or fusion partners.
UniProt P35221: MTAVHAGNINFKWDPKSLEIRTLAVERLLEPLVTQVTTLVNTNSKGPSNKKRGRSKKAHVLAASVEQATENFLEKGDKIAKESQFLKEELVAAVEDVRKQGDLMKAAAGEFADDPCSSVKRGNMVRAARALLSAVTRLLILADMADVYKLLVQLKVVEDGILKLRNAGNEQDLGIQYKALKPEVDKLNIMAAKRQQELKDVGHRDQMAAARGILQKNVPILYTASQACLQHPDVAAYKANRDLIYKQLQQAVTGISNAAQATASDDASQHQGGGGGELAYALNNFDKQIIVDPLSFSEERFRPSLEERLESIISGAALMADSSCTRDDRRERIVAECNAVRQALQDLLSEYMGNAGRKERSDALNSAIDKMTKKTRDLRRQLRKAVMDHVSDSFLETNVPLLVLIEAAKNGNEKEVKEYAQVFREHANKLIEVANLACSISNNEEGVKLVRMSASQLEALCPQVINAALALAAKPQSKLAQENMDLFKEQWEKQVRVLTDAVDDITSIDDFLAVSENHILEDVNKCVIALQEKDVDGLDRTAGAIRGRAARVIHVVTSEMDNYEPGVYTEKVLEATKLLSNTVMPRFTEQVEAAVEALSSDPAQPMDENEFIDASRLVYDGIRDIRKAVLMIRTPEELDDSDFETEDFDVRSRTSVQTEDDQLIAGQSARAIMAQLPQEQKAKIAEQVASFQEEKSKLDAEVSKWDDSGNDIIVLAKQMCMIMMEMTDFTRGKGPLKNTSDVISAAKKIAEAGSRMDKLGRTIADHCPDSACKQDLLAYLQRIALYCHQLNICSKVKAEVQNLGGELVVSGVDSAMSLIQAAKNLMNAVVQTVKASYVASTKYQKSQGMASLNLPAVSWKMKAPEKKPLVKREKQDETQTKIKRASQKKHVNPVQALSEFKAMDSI
UniProt Q9Y297: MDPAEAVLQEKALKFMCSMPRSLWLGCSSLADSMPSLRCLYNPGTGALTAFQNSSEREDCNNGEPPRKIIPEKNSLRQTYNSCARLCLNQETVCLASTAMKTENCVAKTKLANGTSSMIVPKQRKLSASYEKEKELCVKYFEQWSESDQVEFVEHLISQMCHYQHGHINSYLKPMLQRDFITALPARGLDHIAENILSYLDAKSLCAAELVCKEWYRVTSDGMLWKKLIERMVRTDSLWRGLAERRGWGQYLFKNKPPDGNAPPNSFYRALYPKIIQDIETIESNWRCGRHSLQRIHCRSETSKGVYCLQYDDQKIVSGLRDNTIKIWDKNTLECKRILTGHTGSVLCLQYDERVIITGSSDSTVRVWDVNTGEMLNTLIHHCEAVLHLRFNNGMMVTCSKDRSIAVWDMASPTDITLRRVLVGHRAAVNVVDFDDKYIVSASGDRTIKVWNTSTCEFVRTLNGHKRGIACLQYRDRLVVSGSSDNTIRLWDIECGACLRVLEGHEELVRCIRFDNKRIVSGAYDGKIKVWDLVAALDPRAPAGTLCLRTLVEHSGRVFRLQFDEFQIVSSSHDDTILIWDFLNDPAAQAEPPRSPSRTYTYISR

binding (α-catenin): no binding
binding (β-Trcp): binds
Substance: Smed-β-catenin3 (from UniProt A0A291LM11)
